Results as given in patent US5225543A, “Receptors method for purification of G protein-linked” (priority 1991, dated 1993).

System: streptavidin
Assay: Effect of detergent on binding of solubilized R:L complex to streptavidin (Table 2B)
Details: final column of Table 2B
Procedure: The final determination is whether the detergent interferes with binding of the receptor:[^125 I]BioS-28. […] R:L complex in the supernatants ("non-bound to SA") after this time is measured by the charcoal/dextran assay. The % of non-bound, intact R:L complex is calculated from the ratio (R:L non-bound to SA/original R:L in the 100,000×g supernatant). The % of intact R:L complex bound to SA is calculated by subtracting % non-bound R:L from 100%. Finally, % of original R:L bound to SA=% R:L bound to SA×% solubilization of original membrane-bound R:L complex.

## C[C@H](CCC(=O)O)[C@H]1CC[C@H]2[C@@H]3CC[C@@H]4C[C@H](O)CC[C@]4(C)[C@H]3C[C@H](O)[C@]12C [Deoxycholate]
  overall efficiency in recovering receptor: satisfactory results

## C[C@@H]1CC[C@@]2(OC1)O[C@H]1[C@@H](O)[C@H]3[C@@H]4CC[C@H]5C[C@@H](O[C@@H]6O[C@H](CO)[C@H](O[C@@H]7O[C@H](CO)[C@@H](O)[C@H](O[C@@H]8OC[C@@H](O)[C@H](O)[C@H]8O)[C@H]7O[C@@H]7O[C@H](CO)[C@H](O)[C@H](O[C@@H]8O[C@H](CO)[C@@H](O)[C@H](O)[C@H]8O)[C@H]7O)[C@H](O)[C@H]6O)[C@H](O)C[C@]5(C)[C@H]4CC[C@]3(C)[C@H]1[C@@H]2C [Digitonin]
  overall efficiency in recovering receptor: satisfactory results
